Results as given in article PMC5427825.

By UniProt entry, the sequences of proteins in these tests, tags left out. Where a name states a change or a piece, a line headed by the entry shows the natural chain unless it says otherwise.
UniProt Q969V5: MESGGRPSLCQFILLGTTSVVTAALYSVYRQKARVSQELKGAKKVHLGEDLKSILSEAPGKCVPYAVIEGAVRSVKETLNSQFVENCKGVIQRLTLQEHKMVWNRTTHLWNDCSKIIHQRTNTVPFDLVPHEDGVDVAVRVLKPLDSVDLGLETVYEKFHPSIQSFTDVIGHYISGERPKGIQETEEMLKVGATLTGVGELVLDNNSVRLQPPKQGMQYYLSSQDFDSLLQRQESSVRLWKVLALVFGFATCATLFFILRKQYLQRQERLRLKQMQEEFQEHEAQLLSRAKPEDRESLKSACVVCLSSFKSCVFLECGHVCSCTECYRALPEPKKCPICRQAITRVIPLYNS
UniProt P42224: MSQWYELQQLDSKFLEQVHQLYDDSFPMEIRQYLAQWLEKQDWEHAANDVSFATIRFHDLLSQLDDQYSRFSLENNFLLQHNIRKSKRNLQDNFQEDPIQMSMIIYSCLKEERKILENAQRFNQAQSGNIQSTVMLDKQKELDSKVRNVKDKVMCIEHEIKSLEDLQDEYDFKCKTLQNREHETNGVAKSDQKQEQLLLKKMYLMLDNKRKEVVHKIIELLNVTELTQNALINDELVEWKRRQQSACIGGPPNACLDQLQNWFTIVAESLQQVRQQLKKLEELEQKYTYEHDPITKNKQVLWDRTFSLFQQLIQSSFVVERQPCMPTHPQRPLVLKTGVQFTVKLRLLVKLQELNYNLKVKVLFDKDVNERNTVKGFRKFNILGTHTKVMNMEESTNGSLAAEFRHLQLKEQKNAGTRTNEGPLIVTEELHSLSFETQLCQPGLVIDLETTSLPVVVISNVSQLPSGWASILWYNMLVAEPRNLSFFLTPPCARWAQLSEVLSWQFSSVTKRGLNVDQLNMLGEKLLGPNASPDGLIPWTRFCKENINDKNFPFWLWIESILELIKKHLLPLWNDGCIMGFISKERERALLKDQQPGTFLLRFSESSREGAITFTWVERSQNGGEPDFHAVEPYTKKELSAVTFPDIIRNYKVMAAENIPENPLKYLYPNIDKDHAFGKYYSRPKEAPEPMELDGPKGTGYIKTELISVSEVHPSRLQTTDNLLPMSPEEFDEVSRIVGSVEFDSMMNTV
UniProt O95786: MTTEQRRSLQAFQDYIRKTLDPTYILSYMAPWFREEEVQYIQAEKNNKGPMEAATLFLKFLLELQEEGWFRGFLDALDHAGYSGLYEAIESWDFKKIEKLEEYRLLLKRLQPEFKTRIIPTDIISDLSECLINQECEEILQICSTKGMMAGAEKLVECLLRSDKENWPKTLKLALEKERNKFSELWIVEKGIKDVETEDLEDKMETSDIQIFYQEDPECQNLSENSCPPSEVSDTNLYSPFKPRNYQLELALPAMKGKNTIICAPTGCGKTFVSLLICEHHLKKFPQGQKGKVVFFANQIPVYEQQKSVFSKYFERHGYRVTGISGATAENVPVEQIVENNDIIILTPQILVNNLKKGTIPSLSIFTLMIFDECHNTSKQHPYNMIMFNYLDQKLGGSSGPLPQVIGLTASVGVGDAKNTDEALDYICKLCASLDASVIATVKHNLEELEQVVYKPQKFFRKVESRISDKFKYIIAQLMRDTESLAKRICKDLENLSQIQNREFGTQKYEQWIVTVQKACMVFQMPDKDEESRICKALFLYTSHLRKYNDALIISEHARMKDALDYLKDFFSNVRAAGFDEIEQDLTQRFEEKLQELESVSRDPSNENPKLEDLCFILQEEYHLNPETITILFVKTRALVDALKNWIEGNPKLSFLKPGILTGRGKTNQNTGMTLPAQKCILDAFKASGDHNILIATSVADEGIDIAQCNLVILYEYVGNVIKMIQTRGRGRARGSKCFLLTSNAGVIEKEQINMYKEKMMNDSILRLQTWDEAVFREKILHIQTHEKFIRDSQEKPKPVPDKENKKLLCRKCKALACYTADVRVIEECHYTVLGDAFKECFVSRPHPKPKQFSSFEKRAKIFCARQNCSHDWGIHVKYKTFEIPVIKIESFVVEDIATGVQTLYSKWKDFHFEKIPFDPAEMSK
UniProt O00429: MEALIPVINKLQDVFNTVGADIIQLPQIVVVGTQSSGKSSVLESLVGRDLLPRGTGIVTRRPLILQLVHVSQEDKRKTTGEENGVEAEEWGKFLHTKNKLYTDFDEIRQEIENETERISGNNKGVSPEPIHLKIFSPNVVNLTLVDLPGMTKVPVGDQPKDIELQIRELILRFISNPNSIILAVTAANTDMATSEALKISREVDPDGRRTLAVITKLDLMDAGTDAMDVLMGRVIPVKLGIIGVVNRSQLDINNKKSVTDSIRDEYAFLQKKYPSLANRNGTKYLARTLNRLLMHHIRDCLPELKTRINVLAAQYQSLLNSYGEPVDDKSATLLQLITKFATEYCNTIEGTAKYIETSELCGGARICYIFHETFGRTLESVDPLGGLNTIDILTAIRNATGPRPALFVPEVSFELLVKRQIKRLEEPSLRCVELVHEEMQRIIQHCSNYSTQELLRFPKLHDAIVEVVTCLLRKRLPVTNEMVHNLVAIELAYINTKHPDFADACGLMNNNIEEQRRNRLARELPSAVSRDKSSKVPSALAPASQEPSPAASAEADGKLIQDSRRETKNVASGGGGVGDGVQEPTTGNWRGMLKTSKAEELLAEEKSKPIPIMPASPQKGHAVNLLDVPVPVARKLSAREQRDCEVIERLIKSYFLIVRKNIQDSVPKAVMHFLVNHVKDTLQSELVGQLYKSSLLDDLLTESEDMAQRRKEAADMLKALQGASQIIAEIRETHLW
UniProt Q7Z434: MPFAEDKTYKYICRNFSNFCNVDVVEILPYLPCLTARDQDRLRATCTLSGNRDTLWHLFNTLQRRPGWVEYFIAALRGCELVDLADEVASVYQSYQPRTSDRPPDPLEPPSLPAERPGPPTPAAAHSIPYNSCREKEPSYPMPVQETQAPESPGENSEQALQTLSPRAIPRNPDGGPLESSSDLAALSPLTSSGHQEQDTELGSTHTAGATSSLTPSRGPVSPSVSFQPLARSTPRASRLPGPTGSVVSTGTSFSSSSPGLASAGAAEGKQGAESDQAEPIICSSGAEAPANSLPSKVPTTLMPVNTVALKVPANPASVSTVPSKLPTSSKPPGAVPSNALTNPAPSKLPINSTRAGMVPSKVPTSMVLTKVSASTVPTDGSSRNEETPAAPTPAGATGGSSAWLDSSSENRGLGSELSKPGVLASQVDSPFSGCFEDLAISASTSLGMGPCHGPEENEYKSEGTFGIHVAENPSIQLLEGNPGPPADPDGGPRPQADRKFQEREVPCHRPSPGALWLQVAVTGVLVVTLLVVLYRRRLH
UniProt Q27J81: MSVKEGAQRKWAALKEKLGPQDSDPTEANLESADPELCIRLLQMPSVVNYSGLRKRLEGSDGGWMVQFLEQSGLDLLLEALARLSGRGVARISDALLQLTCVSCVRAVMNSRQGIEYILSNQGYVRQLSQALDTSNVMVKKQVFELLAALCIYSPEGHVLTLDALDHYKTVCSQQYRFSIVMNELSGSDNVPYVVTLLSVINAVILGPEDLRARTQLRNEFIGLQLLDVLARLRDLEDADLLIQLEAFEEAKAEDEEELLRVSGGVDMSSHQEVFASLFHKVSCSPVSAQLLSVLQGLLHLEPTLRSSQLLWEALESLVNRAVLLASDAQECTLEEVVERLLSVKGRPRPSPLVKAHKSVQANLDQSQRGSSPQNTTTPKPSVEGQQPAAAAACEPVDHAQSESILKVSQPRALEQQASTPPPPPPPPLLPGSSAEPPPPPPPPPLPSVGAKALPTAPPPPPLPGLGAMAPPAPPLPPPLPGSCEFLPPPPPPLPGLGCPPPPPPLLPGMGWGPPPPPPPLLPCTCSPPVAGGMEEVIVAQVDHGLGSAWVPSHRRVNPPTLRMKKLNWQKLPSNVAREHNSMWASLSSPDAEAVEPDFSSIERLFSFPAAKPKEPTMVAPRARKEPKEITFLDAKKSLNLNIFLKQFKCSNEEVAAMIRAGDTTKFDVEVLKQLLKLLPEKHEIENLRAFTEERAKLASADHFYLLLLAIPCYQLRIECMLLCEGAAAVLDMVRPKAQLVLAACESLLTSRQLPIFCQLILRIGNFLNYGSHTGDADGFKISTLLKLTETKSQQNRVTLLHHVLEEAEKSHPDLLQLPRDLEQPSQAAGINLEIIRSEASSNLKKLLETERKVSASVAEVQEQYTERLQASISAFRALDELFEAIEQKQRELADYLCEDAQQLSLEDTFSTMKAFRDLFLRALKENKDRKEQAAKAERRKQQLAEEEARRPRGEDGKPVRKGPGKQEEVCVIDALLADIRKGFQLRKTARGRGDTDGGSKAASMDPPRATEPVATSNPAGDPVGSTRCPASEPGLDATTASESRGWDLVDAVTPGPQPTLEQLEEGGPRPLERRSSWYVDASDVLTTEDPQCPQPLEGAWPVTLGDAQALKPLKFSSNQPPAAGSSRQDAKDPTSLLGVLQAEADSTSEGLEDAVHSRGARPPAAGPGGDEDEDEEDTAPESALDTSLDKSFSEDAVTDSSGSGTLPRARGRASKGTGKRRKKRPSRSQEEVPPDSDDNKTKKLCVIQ

B1: IFN-inducible oligoadenylate synthetases-like OASL (protein, UniProt Q15646 1-514)
chain: MALMQELYSTPASRLDSFVAQWLQPHREWKEEVLDAVRTVEEFLRQEHFQGKRGLDQDVRVLKVVKVGSFGNGTVLRSTREVELVAFLSCFHSFQEAAKHHKDVLRLIWKTMWQSQDLLDLGLEDLRMEQRVPDALVFTIQTRGTAEPITVTIVPAYRALGPSLPNSQPPPEVYVSLIKACGGPGNFCPSFSELQRNFVKHRPTKLKSLLRLVKHWYQQYVKARSPRANLPPLYALELLTIYAWEMGTEEDENFMLDEGFTTVMDLLLEYEVICIYWTKYYTLHNAIIEDCVRKQLKKERPIILDPADPTLNVAEGYRWDIVAQRASQCLKQDCCYDNRENPISSWNVKRARDIHLTVEQRGYPDFNLIVNPYEPIRKVKEKIRRTRGYSGLQRLSFQVPGSERQLLSSRCSLAKYGIFSHTHIYLLETIPSEIQVFVKNPDGGSYAYAINPNSFILGLKQQIEDQQGLPKKQQQLEFQGQVLQDWLGLGIYGIQDSDTLILSKKKGEALFPAS
B2: HERC5 (enzyme, UniProt Q9UII4 1-1024)
chain: MERRSRRKSRRNGRSTAGKAAATQPAKSPGAQLWLFPSAAGLHRALLRRVEVTRQLCCSPGRLAVLERGGAGVQVHQLLAGSGGARTPKCIKLGKNMKIHSVDQGAEHMLILSSDGKPFEYDNYSMKHLRFESILQEKKIIQITCGDYHSLALSKGGELFAWGQNLHGQLGVGRKFPSTTTPQIVEHLAGVPLAQISAGEAHSMALSMSGNIYSWGKNECGQLGLGHTESKDDPSLIEGLDNQKVEFVACGGSHSALLTQDGLLFTFGAGKHGQLGHNSTQNELRPCLVAELVGYRVTQIACGRWHTLAYVSDLGKVFSFGSGKDGQLGNGGTRDQLMPLPVKVSSSEELKLESHTSEKELIMIAGGNQSILLWIKKENSYVNLKRTIPTLNEGTVKRWIADVETKRWQSTKREIQEIFSSPACLTGSFLRKRRTTEMMPVYLDLNKARNIFKELTQKDWITNMITTCLKDNLLKRLPFHSPPQEALEIFFLLPECPMMHISNNWESLVVPFAKVVCKMSDQSSLVLEEYWATLQESTFSKLVQMFKTAVICQLDYWDESAEENGNVQALLEMLKKLHRVNQVKCQLPESIFQVDELLHRLNFFVEVCRRYLWKMTVDASENVQCCVIFSHFPFIFNNLSKIKLLHTDTLLKIESKKHKAYLRSAAIEEERESEFALRPTFDLTVRRNHLIEDVLNQLSQFENEDLRKELWVSFSGEIGYDLGGVKKEFFYCLFAEMIQPEYGMFMYPEGASCMWFPVKPKFEKKRYFFFGVLCGLSLFNCNVANLPFPLALFKKLLDQMPSLEDLKELSPDLGKNLQTLLDDEGDNFEEVFYIHFNVHWDRNDTNLIPNGSSITVNQTNKRDYVSKYINYIFNDSVKAVYEEFRRGFYKMCDEDIIKLFHPEELKDVIVGNTDYDWKTFEKNARYEPGYNSSHPTIVMFWKAFHKLTLEEKKKFLVFLTGTDRLQMKDLNNMKITFCCPESWNERDPIRALTCFSVLFLPKYSTMETVEEALQEAINNNRGFG
B3: Mff (protein, UniProt Q9GZY8 1-342)
chain: MSKGTSSDTSLGRVSRAAFPSPTAAEMAEISRIQYEMEYTEGISQRMRVPEKLKVAPPNADLEQGFQEGVPNASVIMQVPERIVVAGNNEDVSFSRPADLDLIQSTPFKPLALKTPPRVLTLSERPLDFLDLERPPTTPQNEEIRAVGRLKRERSMSENAVRQNGQLVRNDSLWHRSDSAPRNKISRFQAPISAPEYTVTPSPQQARVCPPHMLPEDGANLSSARGILSLIQSSTRRAYQQILDVLDENRRPVLRGGSAAATSNPHHDNVRYGISNIDTTIEGTSDDLTVVDAASLRRQIIKLNRRLQLLEEENKERAKREMVMYSITVAFWLLNSWLWFRR
B4: IFIT1 (protein, UniProt P09914 1-478)
chain: MSTNGDDHQVKDSLEQLRCHFTWELSIDDDEMPDLENRVLDQIEFLDTKYSVGIHNLLAYVKHLKGQNEEALKSLKEAENLMQEEHDNQANVRSLVTWGNFAWMYYHMGRLAEAQTYLDKVENICKKLSNPFRYRMECPEIDCEEGWALLKCGGKNYERAKACFEKVLEVDPENPESSAGYAISAYRLDGFKLATKNHKPFSLLPLRQAVRLNPDNGYIKVLLALKLQDEGQEAEGEKYIEEALANMSSQTYVFRYAAKFYRRKGSVDKALELLKKALQETPTSVLLHHQIGLCYKAQMIQIKEATKGQPRGQNREKLDKMIRSAIFHFESAVEKKPTFEVAHLDLARMYIEAGNHRKAEENFQKLLCMKPVVEETMQDIHFHYGRFQEFQKKSDVNAIIHYLKAIKIEQASLTRDKSINSLKKLVLRKLRRKALDLESLSLLGFVYKLEGNMNEALEYYERALRLAADFENSVRQGP
B5: IFIT2 (protein, UniProt P09913 1-472)
chain: MSENNKNSLESSLRQLKCHFTWNLMEGENSLDDFEDKVFYRTEFQNREFKATMCNLLAYLKHLKGQNEAALECLRKAEELIQQEHADQAEIRSLVTWGNYAWVYYHMGRLSDVQIYVDKVKHVCEKFSSPYRIESPELDCEEGWTRLKCGGNQNERAKVCFEKALEKKPKNPEFTSGLAIASYRLDNWPPSQNAIDPLRQAIRLNPDNQYLKVLLALKLHKMREEGEEEGEGEKLVEEALEKAPGVTDVLRSAAKFYRRKDEPDKAIELLKKALEYIPNNAYLHCQIGCCYRAKVFQVMNLRENGMYGKRKLLELIGHAVAHLKKADEANDNLFRVCSILASLHALADQYEDAEYYFQKEFSKELTPVAKQLLHLRYGNFQLYQMKCEDKAIHHFIEGVKINQKSREKEKMKDKLQKIAKMRLSKNGADSEALHVLAFLQELNEKMQQADEDSERGLESGSLIPSASSWNGE

target: mitochondrial anchored protein ligase MAPL fused to BirA* (R118G) and FLAG (MAPL-BirA-FLAG) (human) (UniProt Q969V5); test: proximity labelling

binding, binds:
STAT1 (from UniProt P42224 1-750)
retinoic acid-inducible gene I (RIG-I) (from UniProt O95786 1-925)
Drp1 (from UniProt O00429 1-736)
mitochondrial antiviral signaling protein MAVS (from UniProt Q7Z434 1-540)
INF2 (from UniProt Q27J81 1-1249)
B1
B2
B3
B4
B5

Results are given in words; binding and its absence hold for the method and conditions named. In cells and extracts the contact can be indirect. Here binding means that the protein was enriched with, or labelled near, the bait; the list need not be complete.
